The target in the test is T1, GFP-MTR4 (UniProt P42285).
T1 sequence: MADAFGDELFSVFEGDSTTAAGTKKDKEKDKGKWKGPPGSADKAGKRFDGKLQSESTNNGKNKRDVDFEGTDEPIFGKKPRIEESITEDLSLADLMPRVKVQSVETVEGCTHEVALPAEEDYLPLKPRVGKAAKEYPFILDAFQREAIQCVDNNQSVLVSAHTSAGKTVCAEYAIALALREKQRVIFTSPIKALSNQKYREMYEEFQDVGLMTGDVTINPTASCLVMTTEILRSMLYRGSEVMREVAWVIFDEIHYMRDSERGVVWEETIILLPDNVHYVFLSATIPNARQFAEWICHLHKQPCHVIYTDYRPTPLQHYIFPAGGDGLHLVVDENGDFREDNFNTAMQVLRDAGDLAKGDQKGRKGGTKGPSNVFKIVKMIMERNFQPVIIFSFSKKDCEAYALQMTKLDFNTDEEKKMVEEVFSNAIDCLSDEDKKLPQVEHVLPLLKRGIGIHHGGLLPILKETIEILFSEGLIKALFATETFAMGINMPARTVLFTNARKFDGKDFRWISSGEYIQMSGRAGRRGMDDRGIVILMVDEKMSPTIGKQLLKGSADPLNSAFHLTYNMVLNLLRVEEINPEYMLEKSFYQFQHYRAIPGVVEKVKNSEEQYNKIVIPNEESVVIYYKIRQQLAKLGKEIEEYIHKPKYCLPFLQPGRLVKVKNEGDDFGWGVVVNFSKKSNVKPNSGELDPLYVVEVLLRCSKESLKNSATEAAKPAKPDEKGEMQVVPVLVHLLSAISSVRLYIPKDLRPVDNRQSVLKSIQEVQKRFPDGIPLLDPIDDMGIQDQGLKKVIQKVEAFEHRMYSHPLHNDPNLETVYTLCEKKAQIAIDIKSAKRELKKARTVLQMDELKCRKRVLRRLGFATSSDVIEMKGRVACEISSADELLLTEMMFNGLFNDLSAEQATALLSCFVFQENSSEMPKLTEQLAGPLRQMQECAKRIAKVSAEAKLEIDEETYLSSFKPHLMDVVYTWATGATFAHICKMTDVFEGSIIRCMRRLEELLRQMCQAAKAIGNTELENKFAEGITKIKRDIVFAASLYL
Put plainly: co-IP; GFP-MTR4 transfected into HCT116:TIR1, DIS3-AID or EXOSC10-AID cells (EXOSC10-AID cells treated or not treated with auxin, 2 h); lysis in 150mM NaCl, 2.5mM MgCl2, 20mM Tris.HCl pH7.5, 1% Triton X-100 with Benzonase; GFP-TRAP beads 1 hour at 4°C; western blotting with α-GFP, α-EXOSC2, α-EXOSC10.

For one molecule, binding results are on record in article PMC6403362.

Results are given in words; binding and its absence hold for the method and conditions named. Binding seen in cells or lysates may run through a third protein. Some binding calls cover weakened binding; strength is not graded here. Where a sequence is shown, tags or fusion partners need not be part of it.

B1: EXOSC10-AID (enzyme, UniProt Q01780 1-885)
chain: MAPPSTREPRVLSATSATKSDGEMVLPGFPDADSFVKFALGSVVAVTKASGGLPQFGDEYDFYRSFPGFQAFCETQGDRLLQCMSRVMQYHGCRSNIKDRSKVTELEDKFDLLVDANDVILERVGILLDEASGVNKNQQPVLPAGLQVPKTVVSSWNRKAAEYGKKAKSETFRLLHAKNIIRPQLKFREKIDNSNTPFLPKIFIKPNAQKPLPQALSKERRERPQDRPEDLDVPPALADFIHQQRTQQVEQDMFAHPYQYELNHFTPADAVLQKPQPQLYRPIEETPCHFISSLDELVELNEKLLNCQEFAVDLEHHSYRSFLGLTCLMQISTRTEDFIIDTLELRSDMYILNESLTDPAIVKVFHGADSDIEWLQKDFGLYVVNMFDTHQAARLLNLGRHSLDHLLKLYCNVDSNKQYQLADWRIRPLPEEMLSYARDDTHYLLYIYDKMRLEMWERGNGQPVQLQVVWQRSRDICLKKFIKPIFTDESYLELYRKQKKHLNTQQLTAFQLLFAWRDKTARREDESYGYVLPNHMMLKIAEELPKEPQGIIACCNPVPPLVRQQINEMHLLIQQAREMPLLKSEVAAGVKKSGPLPSAERLENVLFGPHDCSHAPPDGYPIIPTSGSVPVQKQASLFPDEKEDNLLGTTCLIATAVITLFNEPSAEDSKKGPLTVAQKKAQNIMESFENPFRMFLPSLGHRAPVSQAAKFDPSTKIYEISNRWKLAQVQVQKDSKEAVKKKAAEQTAAREQAKEACKAAAEQAISVRQQVVLENAAKKRERATSDPRTTEQKQEKKRLKISKKPKDPEPPEKEFTPYDYSQSDFKAFAGNSKSKVSSQFDPNKQTPSGKKCIAAKKIKQSVGNKSMSFPTGKSDRGFRYNWPQR
Regarding B1, the binding result was “binds”.
